Measurements: publication PMC8953689
No constants are given. Whether binding was seen depends on the method and setting. Binding seen in cells or lysates may run through a third protein. Here binding means that the protein was enriched with, or labelled near, the bait; the list need not be complete. Tags and fused reporters may be left off the sequences shown.

Protein sequences, listed by entry. Tags and fused reporters are not part of them.
UniProt O00161: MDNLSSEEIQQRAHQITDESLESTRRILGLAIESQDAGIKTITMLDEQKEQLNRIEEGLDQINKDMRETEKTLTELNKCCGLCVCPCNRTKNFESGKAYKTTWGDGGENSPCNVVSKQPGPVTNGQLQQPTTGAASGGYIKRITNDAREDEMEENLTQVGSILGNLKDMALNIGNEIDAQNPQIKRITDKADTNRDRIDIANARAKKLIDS

T1: FLAG-tagged PLIN5 (murine perilipin 5, wild type), stably expressed in AC16 cardiomyocytes (murine) (UniProt Q8BVZ1)
T1 sequence: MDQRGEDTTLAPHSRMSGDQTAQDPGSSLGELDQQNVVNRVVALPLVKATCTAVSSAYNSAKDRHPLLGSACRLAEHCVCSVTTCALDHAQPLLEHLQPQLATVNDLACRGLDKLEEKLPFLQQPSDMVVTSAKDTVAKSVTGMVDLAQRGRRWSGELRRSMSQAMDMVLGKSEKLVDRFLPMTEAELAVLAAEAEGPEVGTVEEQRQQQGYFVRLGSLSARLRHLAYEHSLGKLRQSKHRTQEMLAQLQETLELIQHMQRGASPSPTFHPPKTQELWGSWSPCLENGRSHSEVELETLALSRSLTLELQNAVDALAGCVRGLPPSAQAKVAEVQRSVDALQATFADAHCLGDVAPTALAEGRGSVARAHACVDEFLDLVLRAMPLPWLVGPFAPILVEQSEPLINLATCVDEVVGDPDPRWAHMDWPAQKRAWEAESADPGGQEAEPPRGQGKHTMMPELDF

T2: FLAG-tagged PLIN5(Δ461–463), stably expressed in AC16 cardiomyocytes (murine) (UniProt Q8BVZ1)
T2 sequence: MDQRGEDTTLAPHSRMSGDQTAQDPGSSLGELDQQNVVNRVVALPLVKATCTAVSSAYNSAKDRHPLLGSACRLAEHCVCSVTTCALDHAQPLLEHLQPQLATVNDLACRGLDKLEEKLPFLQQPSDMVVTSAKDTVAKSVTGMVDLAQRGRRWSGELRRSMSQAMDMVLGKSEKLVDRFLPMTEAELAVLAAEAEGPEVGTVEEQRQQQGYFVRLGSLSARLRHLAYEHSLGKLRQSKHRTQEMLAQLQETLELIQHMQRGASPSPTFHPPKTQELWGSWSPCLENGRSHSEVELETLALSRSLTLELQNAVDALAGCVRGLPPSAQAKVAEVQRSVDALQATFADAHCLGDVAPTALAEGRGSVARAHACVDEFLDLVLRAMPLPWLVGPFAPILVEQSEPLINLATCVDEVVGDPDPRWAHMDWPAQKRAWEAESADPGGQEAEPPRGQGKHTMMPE


Assays:
[1] = target: T1, FLAG-tagged PLIN5 (murine perilipin 5, wild type), stably expressed in AC16 cardiomyocytes (murine); assay: affinity purification with mass spectrometry; AC16 cardiomyocytes stably expressing FLAG-tagged PLIN5, PLIN5(Δ461–463) or β-Gal; FLAG IP in triplicates; copurifying proteins identified by diaPASEF MS, label-free quantification
[2] = target: T2, FLAG-tagged PLIN5(Δ461–463), stably expressed in AC16 cardiomyocytes (murine); assay: as above

binding [1] | binding [2] | Molecule
binds | binds | synaptosomal-associated protein 23 (from UniProt O00161 1-211)
binds | binds | adipose triglyceride lipase (ATGL), endogenous in AC16 cells (enzyme, UniProt Q96AD5 1-504) MFPREKTWNISFAGCGFLGVYYVGVASCLREHAPFLVANATHIYGASAGALTATALVTGVCLGEAGAKFIEVSKEARKRFLGPLHPSFNLVKIIRSFLLKVLPADSHEHASGRLGISLTRVSDGENVIISHFNSKDELIQANVCSGFIPVYCGLIPPSLQGVRYVDGGISDNLPLYELKNTITVSPFSGESDICPQDSSTNIHELRVTNTSIQFNLRNLYRLSKALFPPEPLVLREMCKQGYRDGLRFLQRNGLLNRPNPLLALPPARPHGPEDKDQAVESAQAEDYSQLPGEDHILEHLPARLNEALLEACVEPTDLLTTLSNMLPVRLATAMMVPYTLPLESALSFTIRLLEWLPDVPEDIRWMKEQTGSICQYLVMRAKRKLGRHLPSRLPEQVELRRVQSLPSVPLSCAAYREALPGWMRNNLSLGDALAKWEECQRQLLLGLFCTNVAFPPEALRMRAPADPAPAPADPASPQHQLAGPAPLLSTPAPEARPVIGALGL
